Values from PubChem BioAssay AID1259261 (Sanger Institute, 2017).
Here is an unselected part of 794 reagents. 10 of them (1.3%) count as active. 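Calls reflect knock-down alone without drug; synergy scores with BYL719, cetuximab or trametinib do not affect calls.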 Viability is capped at 1. The record does not give: the amount of reagent, the time to read-out.

Aim: 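Find kinase silencing that cuts viability alone or with anchor drugs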 (primary screen)
System: HCC2998 human colorectal cancer cells
Knock-down reagent: siRNA pool against human genes
Challenge: anchor drugs BYL719 1 µM, cetuximab 5 µg/ml or trametinib 10 nM, each compared with DMSO vehicle
Detection: 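Viability as fraction of non-targeting control plus robust z-score without drug; synergy scores compare knock-down plus drug against each alone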
Reading the numbers: viability z-score, knock-down alone: higher = more viable cells than controls; viability fraction, knock-down alone: higher = more viable cells; synergy score with BYL719: higher = stronger combined killing with BYL719; synergy score with trametinib: higher = stronger combined killing with trametinib; synergy score with cetuximab: higher = stronger combined killing with cetuximab
Rule for the call: 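a knock-down is called essential if its robust z-score without drug is under -3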
Meaning of the calls: active = essential; inactive = no change

| viability z-score, knock-down alone | viability fraction, knock-down alone | synergy score with BYL719 | synergy score with trametinib | synergy score with cetuximab | Call | gene | PubChem SID |
| --- | --- | --- | --- | --- | --- | --- | --- |
| 0.519 | 0.914 | 0.00489 | -0.0371 | -0.0197 | inactive | BRD3 (bromodomain containing 3) | SID135620912 |
| -0.27 | 0.815 | -0.0968 | 0.0472 | -0.105 | inactive | STRADB (STE20 related adaptor beta) | SID135620967 |
| 0.228 | 0.877 | 0.0343 | 0.0698 | -0.0715 | inactive | AK1 (adenylate kinase 1) | SID152147390 |
| -0.0853 | 0.838 | -0.104 | 0.0888 | -0.0707 | inactive | BMX (BMX non-receptor tyrosine kinase) | SID152147462 |
| 1.21 | 1 | 0.132 | 0.201 | 0.101 | inactive | GUK1 (guanylate kinase 1) | SID152156775 |
| -0.657 | 0.766 | 0.0152 | 0.036 | -0.000537 | inactive | STK38 (serine/threonine kinase 38) | SID152149792 |
| -1.35 | 0.68 | -0.0194 | -0.0047 | -0.00403 | inactive | DLG3 (discs large MAGUK scaffold protein 3) | SID135621778 |
| -1.97 | 0.602 | -0.112 | -0.104 | -0.0446 | inactive | CDK18 (cyclin dependent kinase 18) | SID56478887 |
| 1.13 | 0.991 | -0.117 | -0.0459 | -0.0521 | inactive | WNK3 (WNK lysine deficient protein kinase 3) | SID152156066 |
| -2.69 | 0.512 | -0.074 | 0.0545 | -0.0561 | inactive | EPHA6 (EPH receptor A6) | SID152153448 |
| -0.901 | 0.736 | -0.0214 | -0.0503 | -0.0323 | inactive | ATM (ATM serine/threonine kinase) | SID152150358 |
| -0.302 | 0.811 | 0.107 | 0.0262 | 0.0323 | inactive | MAPKAPK2 (MAPK activated protein kinase 2) | SID56478668 |
| -1.25 | 0.692 | -0.11 | 0.0296 | 0.0379 | inactive | CLK3 (CDC like kinase 3) | SID56478875 |
| -0.253 | 0.817 | -0.0944 | -0.11 | -0.116 | inactive | PCBP1 (poly(rC) binding protein 1) | SID134316528 |
| -0.312 | 0.81 | -0.128 | 0.0871 | -0.0315 | inactive | SIK1 (salt inducible kinase 1) | SID152146842 |
| 1 | 0.974 | -0.0574 | 0.000291 | 0.045 | inactive | DLG4 (discs large MAGUK scaffold protein 4) | SID152149566 |
| -0.135 | 0.832 | 0.0295 | 0.0882 | -0.202 | inactive | STK31 (serine/threonine kinase 31) | SID135620977 |
| -1.7 | 0.635 | -0.0901 | 0.169 | -0.131 | inactive | EPHA10 (EPH receptor A10) | SID135620971 |
| -0.387 | 0.8 | -0.0177 | 0.0763 | 0.0086 | inactive | NRBP2 (nuclear receptor binding protein 2) | SID56479019 |
| -0.254 | 0.817 | -0.00735 | 0.0821 | -0.188 | inactive | PRKCQ (protein kinase C theta) | SID56478674 |

3 successive reagents already listed, quoted:
| viability z-score, knock-down alone | viability fraction, knock-down alone | synergy score with BYL719 | synergy score with trametinib | synergy score with cetuximab | Call | gene | PubChem SID |
| --- | --- | --- | --- | --- | --- | --- | --- |
| -1.7 | 0.635 | -0.0901 | 0.169 | -0.131 | inactive | EPHA10 (EPH receptor A10) | SID135620971 |
| -0.387 | 0.8 | -0.0177 | 0.0763 | 0.0086 | inactive | NRBP2 (nuclear receptor binding protein 2) | SID56479019 |
| -0.254 | 0.817 | -0.00735 | 0.0821 | -0.188 | inactive | PRKCQ (protein kinase C theta) | SID56478674 |
